Values joined by “and” are separate entries in the source; they are usually repeats but may differ in a detail not shown here. Identical values can stand only once. ± gives the standard deviation of the averaged measurements. The list shows a part of the results.
system: Madurella mycetomatis MM55; experiment: metabolic activity (growth) relative to DMSO growth control; higher = more fungal growth; conditions: 1 µM

| Compound | metabolic activity |
| --- | --- |
| CN(C)c1cc2c(Nc3ccc4c(cnn4Cc4ccccc4)c3)ncnc2cn1 | 84.3 ± 28% |
| Cc1cnc(Nc2ccc(F)cc2Cl)nc1-c1c[nH]c(C(=O)N[C@H](CO)c2cccc(Cl)c2)c1 [Vertex 11e] | 93.5 ± 20% |
| COc1cc(OC)cc(-c2cc3cnc(N)nc3nc2NC(=O)NC(C)(C)C)c1 | 80.4 ± 19% |
| CCOc1ccc2c(-c3ccnc(Nc4cc(OC)cc(C(F)(F)F)c4)n3)cnn2n1 | 119 ± 70% |
| CCn1c(-c2nonc2N)nc2c(C#CC(C)(C)O)nc(OCCNC)cc21.Cl | 125 ± 24% |
| CCOc1ccc2c(-c3ccnc(Nc4cccc(C(F)(F)F)c4)n3)cnn2n1 | 92.3 ± 13% |
| NC[C@@H](NC(=O)c1ccc(-c2cccnc2)cc1)c1ccccc1 | 119 ± 19% |
| O=C(O)/C=C/C(=O)O.OCCCNc1nccc(-c2c(-c3ccc(F)cc3)nn3cc(C(F)(F)F)ccc23)n1 | 107 ± 21% |
| COc1ccc2nc(-c3cccc(C)n3)nc(Nc3ccncc3)c2c1 | 126 ± 63% |
| COC[C@@H](C)N[C@H]1CC[C@H](Nc2cc(-c3cccc(NCC4(C#N)CCOCC4)n3)c(Cl)cn2)CC1 | 86.2 ± 18% |
| Cc1cc(-c2cnc(N)c3c(-c4ccc5scnc5c4)csc23)n(C)n1 | 97.95 ± 0.27% |
| CNC(=O)c1ccc(C)c(-n2c(C)cc(OCc3ccc(F)cc3F)c(Br)c2=O)c1 | 124 ± 13% |
| COc1cc(-c2cncc(-c3cnn(C4CCNCC4)c3)c2)cc(OC)c1OC | 121 ± 13% |
| O=C(Nc1n[nH]c2nc(-c3ccccc3)c(Br)cc12)C1CC1 | 99.2 ± 10% |
| CC(=O)c1cccc(NC(=O)NC2CCN(c3ccnc(Nc4ccc(F)cc4)n3)C2)c1 (centres undefined) | 98.5 ± 2.9% |
| CNC(=O)CN1CCC(C(=O)Nc2ncc(SCc3ncc(C(C)(C)C)o3)s2)CC1 | 91.1 ± 2.4% |
| Cc1cccc(CC(=O)Nc2ccc(-c3csc4ccnc(N)c34)cc2)c1 | 99.63 ± 0.59% |
| CCOc1cc(F)c(Cn2nc(-c3ncc(OC)c(Nc4ccncc4)n3)c(C)c2C2CC2)c(F)c1 | 95.52 ± 0.75% |
| O=C1Nc2ccccc2SC1=Cc1c[nH]c2cc(OCCN3CCOCC3)ccc12 | 97.9 ± 18% |

| Compound | metabolic activity |
| --- | --- |
| CCc1c(-c2nonc2N)nc2c(C#Cc3ccccc3)ccc(N3C[C@H](N)[C@@H](O)C3)n12 | 111 ± 39% |
| Cl.O=C1Nc2ccc(-c3cccnc3)cc2C1=Cc1cc(Br)c(O)c(Br)c1 | 93 ± 3.9% |
| NS(=O)(=O)c1ccc(Nc2ncc(-c3ccccc3)o2)cc1 | 79.3 ± 3.6% |
| Cc1ccc(-n2c(=O)c3cnc(Nc4ccc(N5CCN(C)CC5)cc4)nc3n3ccnc23)c(Cl)c1.O=C(O)C(F)(F)F.O=C(O)C(F)(F)F | 108 ± 27% |
| CCCS(=O)(=O)Nc1ccc(F)c(C(=O)c2c[nH]c3ncc(Cl)cc23)c1F | 109 ± 18% |
| C[C@@H]1CCNC(=O)c2cc3ccc(C(=O)Nc4nc5ccccc5n4CCCN(C)C)cc3n21 | 83 ± 13% |
| CC(C)(C)OC(=O)NCCCNS(=O)(=O)c1ccc(Nc2ncc3c(n2)Nc2ccsc2C(=O)N3)cc1 | 93.8 ± 24% |
| COC(=O)c1c(-c2ccccc2)c2cc(OC)ccc2c(=O)n1Cc1ccccc1 | 112.4 ± 0.64% |
| Cc1cc2c(N)n[nH]c2cc1-c1cnn(Cc2ccccc2)c1 | 97 ± 15% |
| CC(C)(C)S(=O)(=O)c1ccc2nccc(Nc3n[nH]c4ccc(F)cc34)c2c1 | 96.8 ± 6.2% |
| CN(C)CC(=O)N1CCC(C(=O)Nc2ncc(SCc3ncc(C(C)(C)C)o3)s2)CC1 | 82.6 ± 11% |
| C[C@@H]1CN(c2cc(-c3n[nH]c4ccc(OC5(C)CC5)cc34)ncn2)C[C@H](C)O1 | 87.7% and 106% |
| NC(=O)c1cccnc1COc1cc(-c2ccc(N3CCOCC3)nc2)cc2ncccc12 | 106 ± 2.2% |
| Cc1ccc(CNC(=O)N2CCC[C@]3(CCN(Cc4ccc(Cl)c(Cl)c4)C3)C2)cc1 | 90.2 ± 24% |
| COC(=O)Nc1nc2ccc(Oc3ccc(NC(=O)Nc4cc(C(F)(F)F)ccc4F)cc3)cc2s1.Cl | 94.6 ± 46% |
| CNc1nc(Nc2ccc(C(=O)N3CCOCC3)cc2OC)nc2[nH]cc(Cl)c12 | 105 ± 7.7% |
| O=C(O)C(F)(F)F.O=c1c2cnc(Nc3ccc(N4CCCCC4)cc3)nc2n2ccnc2n1-c1ccccc1Cl | 118 ± 20% |
| COc1cc2ncnc(Nc3cccc(Cl)c3F)c2cc1O[C@H]1CC[C@H]([C@@H]2NCCNC2=O)CC1 | 118 ± 2.7% |

same assay, conditions: 2 µM

| Compound | metabolic activity |
| --- | --- |
| CN(C)c1cc2c(Nc3ccc4c(cnn4Cc4ccccc4)c3)ncnc2cn1 | 81.7 ± 37% |
| Cc1cnc(Nc2ccc(F)cc2Cl)nc1-c1c[nH]c(C(=O)N[C@H](CO)c2cccc(Cl)c2)c1 [Vertex 11e] | 82 ± 1.2% |
| COc1cc(OC)cc(-c2cc3cnc(N)nc3nc2NC(=O)NC(C)(C)C)c1 | 97.5 ± 9% |
| CCOc1ccc2c(-c3ccnc(Nc4cc(OC)cc(C(F)(F)F)c4)n3)cnn2n1 | 73.12 ± 0.59% |
| CCn1c(-c2nonc2N)nc2c(C#CC(C)(C)O)nc(OCCNC)cc21.Cl | 92.4 ± 21% |
| CCOc1ccc2c(-c3ccnc(Nc4cccc(C(F)(F)F)c4)n3)cnn2n1 | 83.2 ± 28% |
| NC[C@@H](NC(=O)c1ccc(-c2cccnc2)cc1)c1ccccc1 | 116 ± 3% |
| O=C(O)/C=C/C(=O)O.OCCCNc1nccc(-c2c(-c3ccc(F)cc3)nn3cc(C(F)(F)F)ccc23)n1 | 72.5 ± 15% |
| COc1ccc2nc(-c3cccc(C)n3)nc(Nc3ccncc3)c2c1 | 118 ± 2.6% |
| COC[C@@H](C)N[C@H]1CC[C@H](Nc2cc(-c3cccc(NCC4(C#N)CCOCC4)n3)c(Cl)cn2)CC1 | 74.42 ± 0.2% |
| Cc1cc(-c2cnc(N)c3c(-c4ccc5scnc5c4)csc23)n(C)n1 | 90.1 ± 5.1% |
| CNC(=O)c1ccc(C)c(-n2c(C)cc(OCc3ccc(F)cc3F)c(Br)c2=O)c1 | 137 ± 18% |
| COc1cc(-c2cncc(-c3cnn(C4CCNCC4)c3)c2)cc(OC)c1OC | 118 ± 38% |
| O=C(Nc1n[nH]c2nc(-c3ccccc3)c(Br)cc12)C1CC1 | 106 ± 12% |
| CC(=O)c1cccc(NC(=O)NC2CCN(c3ccnc(Nc4ccc(F)cc4)n3)C2)c1 (centres undefined) | 103 ± 22% |
| CNC(=O)CN1CCC(C(=O)Nc2ncc(SCc3ncc(C(C)(C)C)o3)s2)CC1 | 120 ± 9.6% |
| Cc1cccc(CC(=O)Nc2ccc(-c3csc4ccnc(N)c34)cc2)c1 | 113 ± 43% |
| CCOc1cc(F)c(Cn2nc(-c3ncc(OC)c(Nc4ccncc4)n3)c(C)c2C2CC2)c(F)c1 | 108 ± 41% |
| O=C1Nc2ccccc2SC1=Cc1c[nH]c2cc(OCCN3CCOCC3)ccc12 | 119 ± 4% |

| Compound | metabolic activity |
| --- | --- |
| CCc1c(-c2nonc2N)nc2c(C#Cc3ccccc3)ccc(N3C[C@H](N)[C@@H](O)C3)n12 | 107 ± 18% |
| Cl.O=C1Nc2ccc(-c3cccnc3)cc2C1=Cc1cc(Br)c(O)c(Br)c1 | 95 ± 44% |
| NS(=O)(=O)c1ccc(Nc2ncc(-c3ccccc3)o2)cc1 | 105 ± 20% |
| Cc1ccc(-n2c(=O)c3cnc(Nc4ccc(N5CCN(C)CC5)cc4)nc3n3ccnc23)c(Cl)c1.O=C(O)C(F)(F)F.O=C(O)C(F)(F)F | 93.9 ± 28% |
| CCCS(=O)(=O)Nc1ccc(F)c(C(=O)c2c[nH]c3ncc(Cl)cc23)c1F | 103 ± 26% |
| C[C@@H]1CCNC(=O)c2cc3ccc(C(=O)Nc4nc5ccccc5n4CCCN(C)C)cc3n21 | 90.5 ± 4.8% |
| CC(C)(C)OC(=O)NCCCNS(=O)(=O)c1ccc(Nc2ncc3c(n2)Nc2ccsc2C(=O)N3)cc1 | 79.1 ± 0.3% |
| COC(=O)c1c(-c2ccccc2)c2cc(OC)ccc2c(=O)n1Cc1ccccc1 | 106 ± 36% |
| Cc1cc2c(N)n[nH]c2cc1-c1cnn(Cc2ccccc2)c1 | 96.9 ± 4.1% |
| CC(C)(C)S(=O)(=O)c1ccc2nccc(Nc3n[nH]c4ccc(F)cc34)c2c1 | 100 ± 25% |
| CN(C)CC(=O)N1CCC(C(=O)Nc2ncc(SCc3ncc(C(C)(C)C)o3)s2)CC1 | 114 ± 16% |
| C[C@@H]1CN(c2cc(-c3n[nH]c4ccc(OC5(C)CC5)cc34)ncn2)C[C@H](C)O1 | 80.1% and 98.2% |
| NC(=O)c1cccnc1COc1cc(-c2ccc(N3CCOCC3)nc2)cc2ncccc12 | 73.2 ± 14% |
| Cc1ccc(CNC(=O)N2CCC[C@]3(CCN(Cc4ccc(Cl)c(Cl)c4)C3)C2)cc1 | 90.4 ± 5.3% |
| COC(=O)Nc1nc2ccc(Oc3ccc(NC(=O)Nc4cc(C(F)(F)F)ccc4F)cc3)cc2s1.Cl | 127 ± 21% |
| CNc1nc(Nc2ccc(C(=O)N3CCOCC3)cc2OC)nc2[nH]cc(Cl)c12 | 94.5 ± 9.7% |
| O=C(O)C(F)(F)F.O=c1c2cnc(Nc3ccc(N4CCCCC4)cc3)nc2n2ccnc2n1-c1ccccc1Cl | 123 ± 18% |
| COc1cc2ncnc(Nc3cccc(Cl)c3F)c2cc1O[C@H]1CC[C@H]([C@@H]2NCCNC2=O)CC1 | 131.6 ± 1.2% |
